# Publication PMC3826745
# These are yes or no findings as the source states them, for the method shown. In cells and extracts the contact can be indirect. Some entries that bind do so weakly or less than the wild type. Where a sequence is shown, tags or fusion partners need not be part of it.
# T1: N-terminally tagged Neurospora crassa eIF3h (Neurospora crassa) (UniProt Q7S9Y9)
# T1 sequence: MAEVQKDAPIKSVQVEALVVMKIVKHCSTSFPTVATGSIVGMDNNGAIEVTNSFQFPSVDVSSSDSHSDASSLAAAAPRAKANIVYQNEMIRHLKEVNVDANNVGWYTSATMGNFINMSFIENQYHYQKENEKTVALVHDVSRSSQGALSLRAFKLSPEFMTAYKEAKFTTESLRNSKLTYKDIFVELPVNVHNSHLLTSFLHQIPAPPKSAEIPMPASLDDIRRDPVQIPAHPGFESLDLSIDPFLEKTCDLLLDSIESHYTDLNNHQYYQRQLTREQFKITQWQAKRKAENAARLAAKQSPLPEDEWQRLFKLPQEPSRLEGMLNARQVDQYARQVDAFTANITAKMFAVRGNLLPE
# T2: N-terminally tagged Neurospora crassa eIF3k (Neurospora crassa) (UniProt Q7S2R9)
# T2 sequence: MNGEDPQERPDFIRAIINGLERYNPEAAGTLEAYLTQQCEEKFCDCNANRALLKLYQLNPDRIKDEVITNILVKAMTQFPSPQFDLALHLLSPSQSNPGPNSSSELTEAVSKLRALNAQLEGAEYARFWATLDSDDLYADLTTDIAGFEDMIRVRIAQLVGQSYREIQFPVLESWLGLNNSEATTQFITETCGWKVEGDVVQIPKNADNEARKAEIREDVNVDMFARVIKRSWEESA
# B1: Neurospora crassa eIF3a (protein, UniProt Q7RWT1 1-1059)
# chain: MPPPPHQKPENVLKRAHELIGVNQAPAALTLLHEHITSKRSRNVPIASLEPVMLLLVELSVEQKKGKLAKDALYQYKNIAQNTNVATIELVLKKFIELAAEKVTAAQAKADEVQSSIEATTSNIDDLEASETPESILLATVSGEQSRDRTDRAIVTPWLKFLWEAYRTVLDILRNNARLEVLYQSTAMQAFDFCLKYTRKTEFRRLCELLRNHVQTAAKYSAQMHAINLNDPDTLQRHLETRFQQLNVAVELELWQEAFRSVEDIHTLLSLSKRPAKNVMMANYYEKLTRIFLVGENYLFHAAAWARYYNLLRQSAALIASGHSKKADNPACSDADLQRAATFVILSALSIPVISTSRSRGAMVDFDEARKNKNSRLTHLLGMAQAPTRAGLFRDALSKSLLRRAQPQIRDLYNILEVDFHPLSICQKISPILAEIGADAEMQKYILPLQQVILTRLFQQLSQVYETVDLEFVESLAQFPEPFQVTRGTIEKFIMNGNKKGDLAIRMDHATGVLSFDADVFSSAKAVHAGSSAGSAESETGSVQRLQSTPSQIVRSQLTRLAEALYTTCRYIDPSFNEARIKARDEALARAKAGAEKEHQEVLARKEIIQTRKDKASEAQAQKEKENARKKLLQEQALQQAEAARLAEEQKLREAKRLANEREQIKRKEVEALLKDMKLEELQGEDIETLDSNKIRMIKLQQLEREKNSVAEKLRITGKRLDHLERAFRKEEAKKLPEDYAKQRERDLAAYERTKAQTLKEAELKHKADVELKHRLTRLMPFYESFRSDLHERRRDEFEKRRRDAEREMEKQINARRKEAREKRIREKREREERERQLREAEERAAREKEEERKRLEARREELQRLKEEKEKEREKLREIAARQQQREEEAMARRKAEKEKLAATPSAYRPPAAAERTEAAAPPRIALAGNRPSWREREAAKAASGETAAPAPAAAEPVAERPRAAAPPAERTEAAAPPRLALAGNRPSWREREAAKAASGGGNAAAVPERSAPPLRAAAPQRAGSGRPENDRDVPPAEPLKASGAPGKYVPKWRREGA
# B2: Neurospora crassa eIF3b (protein, UniProt Q7S464 1-747)
# chain: MAPSFDHLRDEDLDEDDFDVDEVDISDIREKYEVQLEQGYDAFVVVDGLPEVNEEQKPKLVKFLLKKLNTVGKTREDLIFMPMGEDGKSLRFAFVEYSSPAEAAAACRQLDLVPLDKKHTLRVNKLTDVDRYGREGRIDDEYTPPKIEEFQEKEHLRSFMADPSGRGRDQFVMFRGESVGVFWNNEKDTPENIVDRQHWTETFVQWSPLGTYLTSVHAQGVQLWGGPSWTRQRRFAHPFVNLVAFSPNEKYLVTWSNRPISIPEEGHPALSVEDDGKNYVIWDIETSKPLRSFAQLDTPAAAEGEAPKKAPKFPWPAFKWSADDKYVARLNPGQSISVYELPRMNLLDKTAIKIEGVVDFDWAPATVQRDGVKSYEQLFCFWTPEIGSNPARVGLMSIPSKQVVRSLNLFSVSDAKLHWQSEGAYLCVKVDRHSKSKKSQATTLEIFRVKEKGVPVEVVDTIKDTVINFAWEPKGDRFVIITTTEPVGATAVPPKTSVAFFCPEKAKGNAVGNFKHLRTLEKKNSNAIYWSPKGRFVVVATVANTQSSDLDFYDLDFEGEKPESDKDLTANLQLMNTADHYGVTDVEWDPSGRFVATWASAWKHSMENGYHLYDFKGEQLREEAIEKFKQFQWRPRPATLLSKEEQKAIRRNLREYSRIFEQEDAERISSADVAVVEARRRLLEEWFAWREAIRQEVAEEREIYGLPADPVADLIKAKTPELATDQEEQVIEEIMEEVLEETEEIVQ
# B3: Neurospora crassa eIF3c (protein, UniProt Q7SBD4 1-872)
# chain: MSRFFRGGDDSSTDSSSEEEEVYTSEEEEEKVQAEDESSSEEESDEEESDEESSSDEEEGTKKKGASRFLQSDDESEEEEEEQSDDEATTKVKSAKDKRFDELESTISQIQNGQKINDWSLIANEFDKLNRQVVKLQDGSKAPKSYIKAIADLEDFMNETLAKQKVTPKKMNATNARGLNAVKQRIRKNNKEYQTQIDAYRKDADAFMESDDEVAAPKVVSKVRFEAPVVSAEQQEEDDKGFSTVDSRGKVVQYTPESILKHLRAIIESRGKKNTDRLEQIKVMETLNKVVPITPYQKIRVLQTLISARFDLGAGGAAQMPLDQWKAAERDLASLLEILEKEKDHVVVEGAEEWDDDDKLPTIPEGEKYLKVPGSVVSLIERLDDELTRSLQAIDPHTSEYIDRLTDEGSLYNTIFRGLLYYEHLRKDASLEVPQESLNRIIQRRLDHVYYKPAQVVKILEENAWKQVSAEADSEITPRSQSGDAGKLINILSNYLFENSEGIIRARAMLCQIYFLALHDEYYKSRDLMLTSHLQETIANFDIATQILYNRTLVQVGLCAFRKGLVYDAQNTLQEICGSGRQKELLAQGVMIQRYSQVTPEQERLEKQRQLPFHMHINLELLECVYLTCSMLLEIPLLAQTGSSPDVKKRIISKTYRRMLEYHERQIFTGPPENTRDHVMQASKALAAGEWKKATDFIHSIKIWDLMPNTEGIKTMLAKQIQEEGLRTYLFTYAPFYDTLAIATLSSMFELDSRKVSAVVSKMISHEELAAALDQVTETVIFRKGVELSRLQSLALTLSDKASSLIETNERTLEQKTQGSANAFSRKDNRGGGQRGGGQRGGRGGARTGGNPQRQAGGTQFTGGALGNAVRG
# B4: Neurospora crassa eIF3e (protein, UniProt Q7S519 1-443)
# chain: MASTSPATTNGDVAPANYDLVLKLAPHLDRHMIFPLLEFNAGRLKEDETDKAREILAAKYALLKKTNMTDYVANLYCELEGLKEPPAEYAERRQKVFHQLEKYEQETAKITELLQRDDVVNNLRSDKVANLEFLKKEHDVTIDMVNALYDFGQLQYSCGNYADASELLYRFRVLSTDNDKVSYATWGRLACEILTMNWESAMEELQKVRESIDTRLANNPLAQLQHRTELVHWALFPLFNYDKAREPLLDLFFNAGFINTIQANSPWILRYLTVAVITNRGRAKNAGVHQKQMKDVVRIVKQEAYEYQDPITRFVHALCIDFDFEEAQQQLVLAEEVLRSDFFLLAHADDFVDSARHLIFESYCKIHARISLKDLSARLGLNNDDAEKWIVNLIRDTRLDAKIDYKEGTVVMNHPPSSVYQQVIERTKGGFFRTQVLTAAVAR
# B5: Neurospora crassa eIF3f (protein, UniProt Q9P748 1-369)
# chain: MAVDQESFVHLSRPLAPNVLGFGVSNAPLTVNIQPQAVFSIIDHAVRRDDRDTQSTRVIGALVGVRSEDGSEVEVRSTFAIPHTENEDQVEVDVEYQKNMLALTLKANPRETLLGWYTTSHELNSFSALIQNFFASPETGTFPHPAVHLTIGTEAGATIDTKTYISAPVAVSPERAAESCLFIEVPHKLLFTDAERGALGSVAAAADAESRSAPVVSDIENLAQALETVSDLLERVSGFVGEVLDEERDGNHALGQYLMNALSLAPKVSNLAIENDFNNHIQDVLMVSYLANTIRTQIELSQRLATAKLDEGKEGGEKKDGEGAEGDKKTDGQRGQRGQGGKRGGRSGGAGGRGGREQREPREPREAAE
# B6: Neurospora crassa eIF3g (protein, UniProt Q6MFP4 1-297)
# chain: MAAVQQKHDWADDDELEETSTELPPPQKITNKDGSTTIIEYRLNDNGQKVKTTRRIRYITHREVVNPRVAERKSWTKFGLSVKDGAGPAPDTTSVGENIIFKPSFNWRQEAKDESKDPNAQAMKDKLKDKKVKCRICNGEHFTARCPYKDTMAPIGEAGAAADVAASAADEAAAASQGAAGAGKKGSYVPPALRGAGGAAAAGERMGGKYGERDDLATLRVTNVSEMAEEQELRDMFERFGRVTRVFLAKDRDTGLAKGFAFISFADRSDAVKACAKMDGFGFRHLILRVEFAKKAA
# B7: Neurospora crassa eIF3i (protein, UniProt Q7RXH4 1-346)
# chain: MRPILLSGHERALTQIKYNRDGDLLFSVSKDQQICVWFAHNGERLGTYHGHQGAIWTIDVDPTSTILASGSADNTIRLWEIKTGRLLKTWDFPTAVKRVEFSEDGSKLLGVTEKRMGHLGTIVVLDIKLDVDAEQSDEKAMTIVCEDSKATVAGWSYLSKYIIAGHEDGSVSQFDGKNGDLLYNIPIHELNQPITDLQWSHDRTYFITASKDKTSKLITAKDLEVLKTYPADTPLNSATITRKKDFVILGGGQAAMDVTTTSARQGKFEARFYHKIFESEIGRVRGHFGPLNTVAADPTGKSYASGGEDGYVRIHHFDKGYFDFMYEVERERQNKLNQQQQQTISA
# B8: Neurospora crassa eIF3m (protein, UniProt Q7SEK1 1-434)
# chain: MATPQLIFVDGTFAELAQEMADFVQVGEQVQPLLEQDKREDALDLIVKASHSLNAAPEKDFTPAYNLLIHLVLQSEEPKKYLPTLCANLLKPITSSPTHGFTLASNALTTIFNLLDKSNPLRFNVFMQIVRFIRQNSQFDLLKPRLKNVEGWLQEWKSDSESQRKLYVEVSDAANDGGDQEESYFYLLKALATFDRDNQDEVASDEAQKLSLRALRMAISSPTRFDFNDLRSLPSVHALSDSHPVYSQLLDIFTEQDLEDYNDFRDEHQGWIENEKLDHEKLQRKMRLLTFASLAASTPNREIPYASIAKALQIPDEDVEMWTIDVIRSKLVEGRLSQKQKVFLVHRTTYRVFGEKQWRELGTRVDQFKTVVDRLVGVVRKAQTDVEAQREREQQELERKLANAGLGESEQRGGNRGGRTGGARQTRQRTDDDD
# B9: Neurospora crassa eIF3j (protein, UniProt Q7S931 1-274)
# chain: MSGKKWDEEEEESSAPNSPVLAPGRRRFDDEEGNESDVLDSWDAAEDSEVEREKAKKAAEAKAKAEAEAAANKKSKAQRIAERQAERARQLAEDSDAEEETEAERRERLRREQKESDLKHAEDLFAGIGISNDRKVVSKGTIVQIDPKDPNNTIDISTLALFNPTTKTQFETLRTTLGPMIGKLSPKPHYTLFLQEFSKQLAKDLKSDEIKKIASTLTALSNEKLKEEKAAEKGGKKSKAAKTKTSLAGVGRGGAIAEAHDTYDDDAFGDDDFM
# Molecular target: T1, N-terminally tagged Neurospora crassa eIF3h (Neurospora crassa)
# Assay: co-IP; anti-FLAG affinity purification from N. crassa extracts, FLAG peptide elution, Coomassie gel; N-terminally tagged eIF3h in ΔeIF3h, N-terminally tagged eIF3k in ΔeIF3k, or heterokaryon with N-terminally tagged eIF3k and eIF3l (all 12 subunits present)
row,Binder,binding
1,B1,binds
2,B2,binds
3,B3,binds
4,B4,binds
5,B5,binds
6,B6,binds
7,B7,binds
8,B8,binds
9,B9,no binding

# Molecular target: T2, N-terminally tagged Neurospora crassa eIF3k (Neurospora crassa)
# Assay: as above
row,Binder,binding
1,B9,no binding
